## Primary screen of a compound library

Source: ChEMBL document CHEMBL3988442, “University of Dundee, Small-Polar-MMV Screening Library” (2021).

Values are the deposited “Percent Effect”, in %. The record does not define 0% and 100%; most values in the screen are far below 50% and negative numbers occur (in some assays of this library far below -100). This is an unselected part of the compounds tested.

Mtb glucose medium: 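Phenotypic screen: M. tuberculosis growth, glucose 7H9 medium, 3 days; the read-out is not stated. Compounds at 500 µM. Higher reads as more growth inhibition (inferred: compounds with an IC50 in retests scored well above the rest). Size under these conditions: about 18,000 compounds, about 1,400 of them at 50% or above in at least one test.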
Mtb cholesterol medium: 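Growth of Mycobacterium tuberculosis over 4 days (cholesterol / DPPC medium with tyloxapol); the read-out is not stated. Compounds at 500 µM. The record gives no direction; compounds that gave an IC50 in retests scored well above the rest, so higher reads as more growth inhibition. Of about 18,000 compounds tested this way, about 900 (5%) reached 50% or more in at least one test.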

Compound	Mtb glucose medium	Mtb cholesterol medium
NC(CN1CCCC1=O)c1ccccc1 (centres undefined)	7.116	9.289
CN(Cc1ccccc1)C(=O)CCN	10.04	2.449
Cc1ccc2nc(COCC(=O)NC[C@H](C)N)[nH]c2c1	-5.591	3.017
Cc1occc1C(=O)NCC1(N(C)C)CCOCC1	-3.936	-13.85
NC1CCN(C(=O)NC2CCCCC2)CC1	1.669	-1.706
Clc1ccc(OC2CCCNC2)nc1 (centres undefined)	31.31	30.07
COc1c(CNCCCNS(C)(=O)=O)c(C)nn1C	-2.352	-1.458
O=C(CCN1CCCCC1)c1ccc2c(c1)OCO2	69.26	28.48
Cc1cc(C(=O)N(C)C)ccc1NS(C)(=O)=O	4.395	9.733
O=C(Cc1cccs1)N1CCCC1c1ccncc1 (centres undefined)	10.9	-6.275
CN(Cc1nnc[nH]1)S(=O)(=O)c1cc(F)cc(Cl)c1	27.42	-4.637
CC(C)c1ccn(CC(=O)NC2CC2)n1	4.54	-9.469
Cc1cc(F)cc(NCc2ncc[nH]2)c1	45.42	40.17
COc1ncccc1C(=O)N(C)C(C)c1ccccn1 (centres undefined)	7.2	4.747
OC[C@@H]1CN(C2CCC2)C[C@H]1c1nc(C2CC2)no1	14.2	41.76
Cc1nc(C)c(CC(=O)N[C@@H]2CCNC[C@H]2O)s1	10.89	11.54
O=C(NCCSC1CCCC1)c1ccccn1	68.62	51.02
CNC(=O)C1CN(C(=O)Nc2cccc(Cl)c2Br)C1	12.58	7.325
NCCC1CCCN(C(=O)c2c(O)cccc2O)C1 (centres undefined)	1.443	5.649
Cc1nnsc1C(=O)Nc1ccncc1	12.91	14.41
COCCOc1cccc(F)c1C(C)O (centres undefined)	4.39	-8.362
CC(NS(=O)(=O)c1ccccc1)c1ccccn1 (centres undefined)	28.49	-9.69
CC(C(N)=O)N1CCNCC1 (centres undefined)	-6.649	-12.29
CC1(C)CN(Cc2c[nH]cn2)CC[C@]1(C)O	0.6158	-19.72
O=C(CCn1cccn1)Nc1cncc(Br)c1O	4.185	0.6479
CCN(CC)CCNC(=O)Nc1cc(C)ccn1	11.31	38.53
COC(=O)c1cc(CNC(=O)CC(C)C)ccc1OC	41.04	17.14
Cc1ccc(CN)c(=O)[nH]1	-2.196	-1.025
O=S(=O)(NC1CC1)C1CCNC1 (centres undefined)	10.31	6.14
CCOc1ccc(S(=O)(=O)N2CCN(C)CC2)cc1	11.19	0.9315
Cc1noc(CNC(CCO)C(C)C)n1 (centres undefined)	13.8	64.47
COC(=O)NC1CCNCC1	-1.961	-11.37
CCCNS(=O)(=O)c1ccc(C(N)=O)cc1	6.003	-13.3
NCc1ccnc(N)c1	17.81	6.014
CN1CCC(N2CCNCC2CCO)CC1 (centres undefined)	-7.588	-36.04
CCN(CC1CCOC1)C(=O)CN(C)S(C)(=O)=O (centres undefined)	-4.295	-15.92
COc1ccc(O)c(C(=O)NC(C)c2n[nH]c(C)n2)c1 (centres undefined)	7.694	12.41
O=C(NCc1cn2ccccc2n1)c1ccc(=O)oc1	10.31	-4.102
CC1CCC(N(C)C(=O)c2ccn(C)c(=O)c2)CC1 (centres undefined)	3.764	-16.52
CN(C)S(=O)(=O)CCCS(=O)(=O)N1CCC(C)(CN)C1 (centres undefined)	3.825	-19.58

Some entries from above, unchanged:

Compound,Mtb glucose medium,Mtb cholesterol medium
NC(CN1CCCC1=O)c1ccccc1 (centres undefined),7.116,9.289
NCCC1CCCN(C(=O)c2c(O)cccc2O)C1 (centres undefined),1.443,5.649
Cc1nnsc1C(=O)Nc1ccncc1,12.91,14.41
CN(Cc1nnc[nH]1)S(=O)(=O)c1cc(F)cc(Cl)c1,27.42,-4.637